The values below come from paper doi:10.1101/2021.01.08.425994.

These are yes or no findings as the source states them, for the method shown. Binding seen in cells or lysates may run through a third protein. Binding can be weak; no strength is given.

This assay has as its target T1, FBXL21 (UniProt Q9UKT6).
T1 sequence: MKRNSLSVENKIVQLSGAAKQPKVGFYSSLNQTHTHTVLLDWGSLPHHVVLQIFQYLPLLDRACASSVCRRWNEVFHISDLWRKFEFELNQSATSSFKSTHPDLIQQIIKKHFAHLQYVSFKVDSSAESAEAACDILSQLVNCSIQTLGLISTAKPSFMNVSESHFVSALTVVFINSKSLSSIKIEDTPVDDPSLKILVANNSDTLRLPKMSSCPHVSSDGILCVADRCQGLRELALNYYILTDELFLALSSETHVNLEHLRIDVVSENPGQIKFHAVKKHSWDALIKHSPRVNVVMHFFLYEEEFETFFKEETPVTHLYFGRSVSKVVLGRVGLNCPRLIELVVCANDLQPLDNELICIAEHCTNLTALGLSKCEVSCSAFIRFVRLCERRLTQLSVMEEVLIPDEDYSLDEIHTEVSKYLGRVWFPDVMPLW
Put plainly: co-IP.
For the substance human CRY2 D347H, the binding result is on record as “binds”.
As for human CRY2 D467N, the entry is “binds”; as for human CRY2 R460C, “binds”; as for human CRY2 S436R, “binds”.
On to human CRY2 S532L, for which the binding result is “binds”.
In the case of human CRY2 wildtype, the binding entry is reported as “binds”.
